# Primary screen of a compound library

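Phenotypic screen: M. tuberculosis growth, cholesterol and DPPC medium, 4 days; the read-out is not stated. Tested at 50 µM. The record gives no direction; compounds that gave an IC50 in retests scored well above the rest, so higher reads as more growth inhibition. About 69,000 compounds were tested under these conditions; 0.54% (about 370) showed 50% or more at least once.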

Results are given as percent effect.
The controls that fix the scale are not given in the record; negative values are as filed.
Compounds were drawn at random from those tested, without regard to their results.
Two or more numbers in one place are separate tests of the same structure; such repeats can differ widely.

Compound: COCC(NC(=O)c1ccoc1C)c1cccc(C(F)(F)F)c1 (stereo not drawn)
Percent Effect: -3.153

Compound: O=C(CCC(=O)N1CCc2ccccc2C1)c1cccs1
Percent Effect: -3.482

Compound: Cc1nc(N(C)C)nc2c1COCC21CCN(CC2CC2)C1.O=C(O)C(F)(F)F (stereo not drawn)
Percent Effect: -1.859 and -6.607

Compound: CN1CC2(CCCN(c3nc(N)nc4c3CCCC4)C2)OC1=O (stereo not drawn)
Percent Effect: -3.567

Compound: O=C1N(CC2CCCCC2)CCCC1(O)CN1CCc2[nH]ncc2C1 (stereo not drawn)
Percent Effect: -4.944

Compound: Cn1cc(CN2CCc3onc(COCC4CC4)c3C2)cn1
Percent Effect: -19.19

Compound: CCC1c2ccsc2CCN1C(=O)NCc1ccccn1 (stereo not drawn)
Percent Effect: 2.754

Compound: N#CC1(NC(=O)c2nccc3ccccc23)CCSCC1
Percent Effect: 0.9351

Compound: c1ccc(-c2nc(CNC3CCc4ncnn4C3)co2)cc1 (stereo not drawn)
Percent Effect: -5.301

Compound: O=C(c1cc(Cn2ccc3ccccc32)[nH]n1)N1CCOCC1
Percent Effect: -21.65

Compound: O=C(O)C(F)(F)F.O=C(O)C(F)(F)F.[H][C@@]12OCCN(CC3CC3)[C@@]1([H])CC[C@H]2OCCCn1cccn1
Percent Effect: 12.21

Compound: Cc1cnn(CC2CN(Cc3nc(C)c4ccccc4n3)CCO2)c1 (stereo not drawn)
Percent Effect: 6.339

Compound: Cc1ccc(-n2ccnc2)c(C(=O)NCCCN(C)C)c1
Percent Effect: -0.2759

Compound: COc1cccc(-c2cc(C3CCCNC3)ccn2)c1 (stereo not drawn)
Percent Effect: 25.75

Compound: CC(C)c1nc(C2CCCN2CC(=O)N2CCNC2=O)no1 (stereo not drawn)
Percent Effect: -3.222

Compound: CCOc1cccc(NC(=O)c2cc(C)on2)n1
Percent Effect: -12.4

Compound: CC(=O)N1N=C(c2ccccc2)OC1C(=O)NCC(=O)OC(C)(C)C (stereo not drawn)
Percent Effect: -11.38

Compound: O=C(O)C(F)(F)F.[H][C@@]12CC(=O)N(CC(C)C)[C@@]1([H])CCN2Cc1cccc(C#N)c1
Percent Effect: -12.35 and -17.39

Compound: CSc1ccc(C(C(=O)O)N2CCC(CO)CC2)cc1 (stereo not drawn)
Percent Effect: -6.266

Compound: CCCSc1nn(CCCN(C)C)c2nc3sc(C)c(CC)c3c(=O)n12
Percent Effect: -12.95

Compound: CCOC(C)C(=O)N1CCCN(Cc2csc(CC)n2)CC1 (stereo not drawn)
Percent Effect: -40.68

Compound: CC(=O)NCC(=O)N1Cc2nccn2CC(Cn2cccn2)C1 (stereo not drawn)
Percent Effect: -12.73

Compound: [H][C@@]12CNC(=O)N1CCN(C1CCOCC1)C2
Percent Effect: 6.561

Compound: COc1ccc(C(=O)N2CCCCC2c2nc(C)cs2)nn1 (stereo not drawn)
Percent Effect: 2.46

Compound: N#Cc1ccc(OCCn2cccn2)cc1
Percent Effect: -26.46

Compound: Cc1ccc(CN(C(=O)NCc2nnc3n2CCCCC3)C2CC2)o1
Percent Effect: -1.557

Compound: COc1cc(NCCCSc2nnc(C)s2)ncn1
Percent Effect: 28.53

Compound: CC(NC(=O)N1CCN(CCc2ccccc2)CC1)c1nncn1C (stereo not drawn)
Percent Effect: 4.871

Compound: [H][C@@]12CCN(C[C@@H]1CN1CCC(C)CC1)[C@@H](CNC(=O)Nc1ccsc1)C2
Percent Effect: -0.5992

Compound: CC(C)CSCCN1CCN(S(C)(=O)=O)CC1
Percent Effect: 15.1 and -8.027

Compound: COCCn1ccc(NC(=O)Nc2ccc(C(N)=O)c(F)c2)n1
Percent Effect: -2.531

Compound: COc1ccccc1CC(=O)N1CCC(NCc2c[nH]nc2C)CC1
Percent Effect: -26.34

Compound: COc1c(C)cnc(CN2CCCCC2CCN2CCOCC2)c1C (stereo not drawn)
Percent Effect: -1.808

Compound: CC(C)NC(=O)[C@@H]1Cc2[nH]cnc2CN1CCCc1ccccc1
Percent Effect: -4.388

Compound: Cn1ncc2c(NCCCOc3cccnc3)nc(C3CCCC3)nc21
Percent Effect: 4.599 and -17.51

Compound: O=C(O)C(F)(F)F.[H][C@@]12CCC(=O)N(c3cnn(C)c3)[C@]1([H])CCN2CC1CCOCC1
Percent Effect: -8.49

Compound: CC(CN1CCOCC1)N(Cc1ccccc1)Cc1ccncc1 (stereo not drawn)
Percent Effect: -21.37 and -4.534

Compound: O=C(c1ccc(Cl)o1)N1CCCC(c2cc(C(F)(F)F)[nH]n2)C1 (stereo not drawn)
Percent Effect: 1.784

Compound: O=C(O)C(F)(F)F.O=C1N(CC2CC2)CCC12CCN(CC1CC1)CC2
Percent Effect: 7.137

Compound: Cc1cc(NC(=O)CSc2nc(=O)ccn2C(C)C)no1
Percent Effect: -11.62

Compound: c1ccc(-c2nnc(CN3CCOC(Cn4cccn4)C3)o2)cc1 (stereo not drawn)
Percent Effect: 12.45

Compound: CC(C(=O)N1CCCCC1)N1CCN(c2nccs2)CC1 (stereo not drawn)
Percent Effect: -5.789

Compound: CCC(=O)N1CCC(O)(c2ncc(OC)nc2OC)CC1
Percent Effect: 0.3881

Compound: CCOCC(O)CN1CCN(C(=O)Cc2cccc(Cl)c2)CC1 (stereo not drawn)
Percent Effect: -6.085

Compound: O=C(CCc1nc2ccccc2[nH]1)N1CCCC(n2cccn2)C1 (stereo not drawn)
Percent Effect: 11.84

Compound: Cc1ccc(-c2noc(CN3CCOC(Cn4cncn4)C3)n2)cc1 (stereo not drawn)
Percent Effect: -3.85

Compound: CCc1nc(CN2CCCN(Cc3noc(C4CC4)n3)CC2)cs1
Percent Effect: 112.4 and -9.204

Compound: CC(NCc1cc2cc(F)ccc2o1)c1nnc2n1CCCC2 (stereo not drawn)
Percent Effect: 10.93

Compound: COCCNc1cc(-c2cccc(C(=O)O)c2C)c2cc[nH]c2n1
Percent Effect: -0.4019

Compound: CC(C)CC(=O)N(C)Cc1nc(C(F)(F)F)cs1
Percent Effect: -9.128 and 5.061

Compound: Cc1cc(F)c2c(c1)CCCN2C(=O)c1cncc(Br)c1
Percent Effect: 1.812

Compound: O=C(O)C(F)(F)F.[H][C@@]12CCN(c3cccnc3)C[C@]1([H])CN(C(=O)C1CCC1)C2
Percent Effect: -20.6

Compound: O=C(O)C(F)(F)F.[H][C@@]12CNC(=O)[C@@H](C)[C@]1([H])CN(CCc1ccccc1)C2
Percent Effect: -3.602

Compound: c1cc(-c2noc(C3CCC3)n2)cc(N2CCCCC2)n1
Percent Effect: 23.5

Compound: Cn1cccc1C(=O)N1CCC2(CCN(C(=O)c3cccnc3)C2)CC1.O=C(O)C(F)(F)F
Percent Effect: 4.322

Compound: Cc1nn(C)c2c(=O)n(Cc3ccccc3)nnc12
Percent Effect: 5.09

Compound: COc1ccc(CNC(=O)NC2CCN(C)CC2)c(C(F)(F)F)c1
Percent Effect: 9.788

Compound: CC(C(N)=O)N1CCN(c2ncc(Br)cn2)CC1 (stereo not drawn)
Percent Effect: -13.64

5 of the entries, repeated:

| Compound | Percent Effect |
|---|---|
| `COCCn1ccc(NC(=O)Nc2ccc(C(N)=O)c(F)c2)n1` | -2.531 |
| `COCCNc1cc(-c2cccc(C(=O)O)c2C)c2cc[nH]c2n1` | -0.4019 |
| `N#CC1(NC(=O)c2nccc3ccccc23)CCSCC1` | 0.9351 |
| `Cn1cccc1C(=O)N1CCC2(CCN(C(=O)c3cccnc3)C2)CC1.O=C(O)C(F)(F)F` | 4.322 |
| `N#Cc1ccc(OCCn2cccn2)cc1` | -26.46 |

From ChEMBL document CHEMBL3988442, “University of Dundee, Small-Polar-MMV Screening Library” (2021).